{
  "source": "patent US20240344034A1",
  "about": "“Renal Progenitor Cells” (The University of Queensland, priority 2013, published 2024)",
  "key": {"hESC-derived IM cells": {"tested_on": "hESC-derived IM cells", "assay": "Differentiation of IM to ureteric epithelium and metanephric mesenchyme/nephron progenitors (IF, PCR)", "type": "cell-based, human", "procedure": "HES3 (MIXL1^GFP/wt) cells were routinely cultured on irradiated MEF feeder cells in F12/DMEM (Life Technologies) supplemented with 20% KnockOut serum replacement (Life Technologies), 100 μM MEM NEAA (Life Technologies), 110 μM 2-mercaptoethanol (Life Technologies), 1×penicillin/streptomycin (Life Technologies), 1× Glutamax (Life Technologies) and 10 ng/mL bFGF (R&D systems). The day before starting differentiation, cells were plated at 12,000-15,000 cells/cm^2 on a Matrigel coated 96-well plate. After overnight culture, cells were exposed to 30 ng/mL BMP4 (R&D systems) and 10 ng/mL Activin A (R&D systems) or 8 μM CHIR99021 in a previously established serum free media APEL for 2-3 days, then 200 ng/mL FGF9 and 1 μg/mL Heparin in APEL media for 4 days to induce IM cells. Subsequently cells were exposed to 200 ng/mL FGF9, 50 ng/mL BMP7, 0.1 μM RA and 1 μg/mL Heparin for 4-11 days in case of BMP4/Activin A induction. In case of CHIR99021 induction, cells were exposed to 200 ng/mL FGF9 and 1 μg/mL Heparin for 6 days then cultured in APEL basal media for another 6 days. […]\n(§1) Total RNA was extracted from cells using RNeasy micro kit (QIAGEN) and cDNA was synthesized from >100 ng RNA using Super Script III reverse transcriptase (Life Technologies). Quantitive RT-PCR (qRT-PCR) analyses were performed with Syber Green (Applied Biosystems) by ABI PRISM 7500 real-time PCR machine. […]"}, "[1]": {"tested_on": "hESC-induced posterior primitive streak", "assay": "Intermediate mesoderm (IM) induction from hESC-induced posterior primitive streak (IF, qRT-PCR)", "type": "cell-based, human", "conditions": "primitive streak induction with named agent, then 200 ng/ml FGF9 from day 2 to 6", "procedure": "HES3 (MIXL1^GFP/wt) cells were routinely cultured on irradiated MEF feeder cells in F12/DMEM (Life Technologies) supplemented with 20% KnockOut serum replacement (Life Technologies), 100 μM MEM NEAA (Life Technologies), 110 μM 2-mercaptoethanol (Life Technologies), 1×penicillin/streptomycin (Life Technologies), 1× Glutamax (Life Technologies) and 10 ng/mL bFGF (R&D systems). The day before starting differentiation, cells were plated at 12,000-15,000 cells/cm^2 on a Matrigel coated 96-well plate. […]\nas §1\nTo quantify the proportion of differentiated cells positive for PAX2^+, LHX1^+, SOX17^+, SIX2^+ or WT1^+, cells were immunofluorescently stained with each antibody together with the nuclear stain, DAPI. The ratio of differentiated cells to total cells was manually counted using Image J in 1 or 2 representative fields per experiment (total 3-5 representative fields from 3 independent experiments, 1-1.5×10^3 cells in total), using an Olympus BX-51 microscope, 10× objective."}},
  "note": "For part of these data: For at least one compound, name, drawing or mass did not settle the structure. Some entries share one result that the patent states for a list of compounds.",
  "data": [
    {"smiles": "CC1=C(/C=C/C(C)=C/C=C/C(C)=C/C(=O)O)C(C)(C)CCC1", "note": "[RA, retinoic acid]", "values": [
      {"measurement": "formation of ECAD+ PAX2+ early epithelial structures (UE)", "setting": "hESC-derived IM cells; FGF9 together with different RA concentrations from day 6", "result": "dose dependent manner"},
      {"measurement": "production of ureteric epithelium versus mesenchyme", "setting": "hESC-derived IM cells; increasing RA", "result": "increases the production of ureteric epithelium at the expense of mesenchyme"}
    ]},
    {"smiles": "Cc1c[nH]c(-c2cnc(NCCNc3ccc(C#N)cn3)nc2-c2ccc(Cl)cc2Cl)n1", "note": "[CHIR99021]", "values": [
      {"measurement": "percentage of cells positive for PAX2 protein at day 6 (induction efficiency)", "setting": "[1]", "result": "exceeded 80%"}
    ]}
  ]
}
